Reference: US20200306340A1 (ACCELERON PHARMA, published 2020)
Results are given in words; binding and its absence hold for the method and conditions named. Some results given as binding are weak or reduced against the parent protein; the word gives no strength. Tags and fused reporters may be left off the sequences shown.

Experiments:
[1] = molecular target: T1, GDF11 (UniProt O95390 299-407); assay: Biacore SPR
T1 sequence (looked up): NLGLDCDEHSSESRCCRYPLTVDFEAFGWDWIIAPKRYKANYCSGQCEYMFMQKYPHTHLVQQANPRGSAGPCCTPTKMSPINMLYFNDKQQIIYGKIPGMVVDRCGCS

[2] = molecular target: T2, GDF8 (UniProt O14793 267-375); assay: Biacore SPR
T2 construct: also called myostatin
T2 sequence (looked up): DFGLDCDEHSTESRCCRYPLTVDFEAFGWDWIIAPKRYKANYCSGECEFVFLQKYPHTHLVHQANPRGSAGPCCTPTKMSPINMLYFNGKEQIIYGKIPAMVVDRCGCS

[3] = molecular target: T3, BMP6 (UniProt P22004 382-513, limits assumed); assay: Biacore SPR
T3 sequence (looked up): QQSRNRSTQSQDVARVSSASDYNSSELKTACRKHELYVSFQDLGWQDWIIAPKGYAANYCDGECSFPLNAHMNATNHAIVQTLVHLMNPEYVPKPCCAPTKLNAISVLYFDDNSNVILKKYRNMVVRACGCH

[4] = molecular target: T4, BMP9 (UniProt Q9UK05 320-429); assay: Biacore SPR
T4 construct: also called GDF2
T4 sequence (looked up): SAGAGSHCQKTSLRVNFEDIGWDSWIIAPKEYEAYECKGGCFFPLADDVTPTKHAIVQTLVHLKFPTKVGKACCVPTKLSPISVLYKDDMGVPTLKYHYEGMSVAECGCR

[5] = molecular target: T5, activin B (UniProt P09529 293-407); assay: Biacore SPR (binding data referred to)
T5 sequence (looked up): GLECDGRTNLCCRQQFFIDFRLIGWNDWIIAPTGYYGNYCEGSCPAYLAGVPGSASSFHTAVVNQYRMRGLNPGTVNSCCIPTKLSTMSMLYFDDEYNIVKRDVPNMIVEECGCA

[6] = molecular target: T1, GDF11; assay: Biacore SPR (binding data referred to)
[7] = molecular target: T2, GDF8; assay: Biacore SPR (binding data referred to)
[8] = molecular target: T1, GDF11; assay: comparative ligand binding data, ligands ranked by koff (legend of FIG. 19)
[9] = molecular target: T2, GDF8; assay: as above
[10] = molecular target: T3, BMP6; assay: as above

Measured: binding

B1: ActRIIB-Fc homodimer (Fc fusion, not shown: a dimerising Fc or GST)
chain: GRGEAETRECIYYNANWELERTNQSGLERCEGEQDKRLHCYASWRNSSGTIELVKKGCWLDDFNCYDRQECVATEENPQVYFCCCEGNFCNERFTHLPEAGGPEVTYEPPPTAPT
binds: all assays above
